Results are given in words; binding and its absence hold for the method and conditions named. In cells and extracts the contact can be indirect. Some binding calls cover weakened binding; strength is not graded here. Where a sequence is shown, tags or fusion partners need not be part of it. Blank lines part the entries; values can stand above or below the binder they belong to.
Tests used:
FLAG-RNF169 = target: T1, FLAG-RNF169 (UniProt Q8NCN4); assay: co-IP; HEK-293T soluble extracts transiently expressing tagged DYRK1A and RNF169 versions; immunoprecipitation with anti-FLAG (Fig. 3C, 4B, 4C, 4E) or anti-HA (Fig. 4A); binding buffer 50 mM Hepes pH 7.4, 150 mM NaCl, 2 mM EDTA, 1% NP-40; Western blot
T1 sequence: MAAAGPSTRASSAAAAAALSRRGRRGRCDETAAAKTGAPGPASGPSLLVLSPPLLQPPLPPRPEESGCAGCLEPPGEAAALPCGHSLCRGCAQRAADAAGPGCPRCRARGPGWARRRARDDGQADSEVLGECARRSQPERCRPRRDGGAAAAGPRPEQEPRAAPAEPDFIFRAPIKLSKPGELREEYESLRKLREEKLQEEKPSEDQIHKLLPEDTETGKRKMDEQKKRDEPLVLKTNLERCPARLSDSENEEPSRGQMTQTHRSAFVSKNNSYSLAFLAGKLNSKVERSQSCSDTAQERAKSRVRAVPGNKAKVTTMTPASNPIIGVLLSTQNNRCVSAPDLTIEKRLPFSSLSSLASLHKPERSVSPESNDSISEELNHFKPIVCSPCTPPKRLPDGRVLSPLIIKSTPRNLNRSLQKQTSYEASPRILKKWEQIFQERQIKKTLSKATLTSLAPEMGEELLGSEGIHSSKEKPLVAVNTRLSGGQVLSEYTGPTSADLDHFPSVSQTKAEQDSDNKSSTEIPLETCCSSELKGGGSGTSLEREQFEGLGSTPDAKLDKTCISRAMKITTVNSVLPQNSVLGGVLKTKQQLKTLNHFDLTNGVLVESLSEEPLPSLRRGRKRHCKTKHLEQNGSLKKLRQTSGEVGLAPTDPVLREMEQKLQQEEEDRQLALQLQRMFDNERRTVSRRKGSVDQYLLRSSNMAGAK

MBP-RNF169 = target: T2, MBP-RNF169 (UniProt Q8NCN4); assay: pull-down; MBP-RNF169 expressed in bacteria as bait; HEK-293T extracts expressing FLAG-DYRK1A alone or together with HA-DCAF7 as preys; Western blot with antibodies to the tags; only the target purified
T2 sequence: T1 sequence

binding (FLAG-RNF169): binds
B1: DCAF7 (endogenous, HEK-293T) (protein, UniProt P61962 1-342)
chain: MSLHGKRKEIYKYEAPWTVYAMNWSVRPDKRFRLALGSFVEEYNNKVQLVGLDEESSEFICRNTFDHPYPTTKLMWIPDTKGVYPDLLATSGDYLRVWRVGETETRLECLLNNNKNSDFCAPLTSFDWNEVDPYLLGTSSIDTTCTIWGLETGQVLGRVNLVSGHVKTQLIAHDKEVYDIAFSRAGGGRDMFASVGADGSVRMFDLRHLEHSTIIYEDPQHHPLLRLCWNKQDPNYLATMAMDGMEVVILDVRVPCTPVARLNNHRACVNGIAWAPHSSCHICTAADDHQALIWDIQQMPRAIEDPILAYTAEGEINNVQWASTQPDWIAICYNNCLEILRV

binding (MBP-RNF169): binds
B2: HA-DCAF7 (protein, UniProt P61962 1-342)
chain: B1 chain

— publication PMC6461666
